According to PubChem BioAssay AID2685 (National Center for Advancing Translational Sciences (NCATS), 2010):
Out of some 320,000 compounds screened, about 2,100 (0.66%) were called active. Inconclusive means that the source gave no clear call. Such entries were picked first, then a sample of the others. Calls follow the shape of the dose curve; as a rule, active = well fitted inhibition curve with a large enough effect in the signal ratio, with a control signal flat (not every such curve was filed as active); inconclusive = small, poorly fitted or top-dose-only effect, or effect the other way, or a change in a side signal; inactive = flat fitted curve, though single readings scatter; the % refers to the signal ratio. Potencies beside an inconclusive call are fits to weak or partial responses and may not hold up.

assay: qHTS Assay for Lipid Storage Modulators in Drosophila S3 Cells; details: BODIPY lipid droplet fluorescence, 18-24 h, cells fed with added oleic acid; lipid storage change, negative = inhibition: at 46.1 µM (top of the series) unless noted
Procedure, shortened: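 Drosophila S3 cells loaded with oleic acid (400 uM, as added) and compounds at several concentrations; lipid droplets imaged by 488-nm laser-scanning cytometry, 500–530 nm intensity and object ratio to cell channel. Percent activity normalized to 20 uM Triacsin C.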
% is scaled to controls: 0 for no effect and ±100 for the full control effect; potency is read from the fitted curve at half-maximal effect.

Structure (SMILES)	lipid storage change, negative = inhibition	Potency
COc1ccc(-c2cc(-c3ccc(OC)cc3)[nH]n2)cc1	inconclusive: -48.4%	
COc1ccc(C(CC(=O)N2CCCC(C)C2)c2c(O)cc(OC)cc2OC)cc1 (stereo unspecified)	inconclusive: 19.6%	
O=C(O)c1ccccc1-c1ccccc1C(=O)Nc1nccs1	inconclusive: 0.714%	
Cc1cc(C)c(C(=O)CSC2=NC(N)=C(C#N)C3(CCCCC3)C2C(N)=O)cc1C (stereo unspecified)		inconclusive: 4.6 nM [rising, full curve, poor fit]
CC(C)(C)NC(=O)NC(=O)COC(=O)Cn1cnc2ccccc2c1=O	inactive	
CCN(CC)S(=O)(=O)c1ccc(OC)c(NS(=O)(=O)c2cccc(C(=O)O)c2)c1	inconclusive: -78%	
COc1cc(C2c3c(-c4cc(C)cc(C)c4O)n[nH]c3C(=O)N2CCCO)cc(OC)c1OC (stereo unspecified)		inconclusive: 920 nM [falling, full curve]
CN(C)c1nc2c(c(=O)[nH]c(=O)n2C)n1CCOc1ccccc1	inconclusive: 6.17%	
CCC(C)(C)NC(=O)CN(C(=O)CNS(=O)(=O)c1ccc(F)cc1)c1ccc2c(c1)OCCO2	inconclusive: 14.2%	
Cc1c(CC(=O)N[C@H](C(=O)O)C(C)C)c(=O)oc2cc3c(cc12)CCC(C)(C)O3	inconclusive: 9.12%	
Cc1cc2n(n1)C(c1cn(-c3ccccc3)nc1C)Nc1ccccc1-2 (stereo unspecified)		inconclusive: 259 nM [activator, full curve]
Cc1ccccc1NC(=O)COC(=O)/C=C/c1cn(-c2ccccc2)nc1-c1cccnc1	inconclusive: -12.7%	
O=C(c1ccc(S(=O)(=O)Nc2cccc(C(F)(F)F)c2)cc1)N1CCOCC1	inconclusive: 9.53%	
CN1N=C(C(C)(C)C)CC1=O	inconclusive: -24.7%	
O=C(/C=C/c1ccco1)N(Cc1cccc(F)c1)C1CCS(=O)(=O)C1 (stereo unspecified)		inconclusive: 6510 nM [activator, single point]
COc1ccccc1N1CCN(C(=O)COc2cccc(C)c2C)CC1	inconclusive: 22.5%	
O=C(c1cc(COc2ccc(F)cc2Cl)on1)N1CCN(c2cnccn2)CC1	inconclusive: 6.96%	
N#CC1=C(N)C2=CCCC[C@H]2[C@H](c2ccccc2)C1(C#N)C#N		inconclusive: 29100 nM [falling, single point]
CC(C)Oc1ccc(S(=O)(=O)N2CCOCC2)cc1NC(=O)CC1OC(=O)c2ccccc21 (stereo unspecified)	inconclusive: 38.2%	
c1ccc(OCCCn2ccnc2)cc1	inconclusive: -17.8%	
CCC(C)(C)NC(=O)CN(C(=O)CCC(=O)Nc1nccs1)c1cccc(C)c1C	inconclusive: 9.83%	

Sorted by molecular weight (largest number first): 3 of the compounds above
Structure (SMILES)	lipid storage change, negative = inhibition	Potency
CCC(C)(C)NC(=O)CN(C(=O)CNS(=O)(=O)c1ccc(F)cc1)c1ccc2c(c1)OCCO2	inconclusive: 14.2%	
COc1cc(C2c3c(-c4cc(C)cc(C)c4O)n[nH]c3C(=O)N2CCCO)cc(OC)c1OC (stereo unspecified)		inconclusive: 920 nM [falling, full curve]
Cc1cc2n(n1)C(c1cn(-c3ccccc3)nc1C)Nc1ccccc1-2 (stereo unspecified)		inconclusive: 259 nM [activator, full curve]
